Test results: PMC11677128

Test system: GST-SlUPA-like (Solanum lycopersicum)
Assay: EMSA
Conditions: Purified GST-SlUPA-like with biotin probes, polyacrylamide gel, LightShift EMSA Optimization & Control Kit (Thermo); pH and temperature not stated; recombinant protein; protein details: N-terminal GST (pGEX-4T-1)

Row | Sequence | binding result
1 | AAGTTAAAAGCCAAAGTTATCAACTGACGTCAATTTAAAGGTCATGTTTA (double strand) [SlGID2 promoter motif 2 probe (Bio-P/Cold-P)] | binds
2 | ATTAACAGGCAGTAACAATTCAGTTGAAAGATTTTTGAAGAATATTTTAG (double strand) [SlGID2 promoter motif 1 probe (Bio-P/Cold-P)] | no binding

Construct, isoform or probe ends are uncertain for at least one entry. A negative result means that nothing was seen under these conditions.
